Common to all, as to experiment: proximity labelling; BioID2 fused to the carboxy terminus of the bait in stable doxycycline-inducible 293T lines; 50 µM biotin 16 hr; RIPA lysis, streptavidin beads, on-bead digestion, MS; hits ≥threefold over cytoplasmic BioID2 control or absent from it, p < 0.05, three of four replicates
Experiment [1] addresses FHIP2A tagged at the carboxy terminus with BioID2 and 3xFLAG (human) (UniProt Q5W0V3).
The target in experiment [2] is FHIP1A tagged at the carboxy terminus with BioID2 and 3xFLAG (human) (UniProt Q05DH4).
The target in experiment [3] is FHIP2B tagged at the carboxy terminus with BioID2 and 3xFLAG (human) (UniProt Q86V87).
The target of experiment [4] is T1, FHIP1B tagged at the carboxy terminus with BioID2 and 3xFLAG (human) (UniProt Q8N612).
T1 sequence: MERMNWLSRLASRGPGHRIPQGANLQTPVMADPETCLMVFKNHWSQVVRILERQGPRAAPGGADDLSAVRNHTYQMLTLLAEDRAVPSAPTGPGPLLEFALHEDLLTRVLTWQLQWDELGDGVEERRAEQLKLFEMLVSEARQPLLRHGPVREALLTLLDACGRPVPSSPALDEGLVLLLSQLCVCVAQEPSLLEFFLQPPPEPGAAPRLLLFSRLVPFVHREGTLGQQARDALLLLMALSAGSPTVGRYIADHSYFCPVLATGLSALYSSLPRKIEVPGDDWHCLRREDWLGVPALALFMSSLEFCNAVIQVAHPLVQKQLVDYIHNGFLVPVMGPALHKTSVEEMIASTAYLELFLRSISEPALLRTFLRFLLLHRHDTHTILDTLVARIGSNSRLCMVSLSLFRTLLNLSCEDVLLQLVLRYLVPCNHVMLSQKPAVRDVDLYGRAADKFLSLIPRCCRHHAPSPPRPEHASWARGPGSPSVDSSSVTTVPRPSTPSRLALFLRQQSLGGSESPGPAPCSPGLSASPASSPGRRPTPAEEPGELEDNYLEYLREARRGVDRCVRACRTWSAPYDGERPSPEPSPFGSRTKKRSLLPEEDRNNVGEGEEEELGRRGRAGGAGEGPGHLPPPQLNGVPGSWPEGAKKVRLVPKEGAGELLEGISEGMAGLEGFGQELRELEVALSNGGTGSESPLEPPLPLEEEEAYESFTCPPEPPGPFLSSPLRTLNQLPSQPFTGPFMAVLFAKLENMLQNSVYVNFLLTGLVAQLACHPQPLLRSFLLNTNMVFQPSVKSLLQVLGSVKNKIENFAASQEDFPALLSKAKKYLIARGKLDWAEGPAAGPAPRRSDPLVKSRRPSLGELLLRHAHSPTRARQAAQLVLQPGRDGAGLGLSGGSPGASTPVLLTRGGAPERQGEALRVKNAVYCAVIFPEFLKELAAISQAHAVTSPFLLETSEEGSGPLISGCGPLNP

Protein sequences, listed by entry. Tags and fused reporters are not part of them.
UniProt Q86V87: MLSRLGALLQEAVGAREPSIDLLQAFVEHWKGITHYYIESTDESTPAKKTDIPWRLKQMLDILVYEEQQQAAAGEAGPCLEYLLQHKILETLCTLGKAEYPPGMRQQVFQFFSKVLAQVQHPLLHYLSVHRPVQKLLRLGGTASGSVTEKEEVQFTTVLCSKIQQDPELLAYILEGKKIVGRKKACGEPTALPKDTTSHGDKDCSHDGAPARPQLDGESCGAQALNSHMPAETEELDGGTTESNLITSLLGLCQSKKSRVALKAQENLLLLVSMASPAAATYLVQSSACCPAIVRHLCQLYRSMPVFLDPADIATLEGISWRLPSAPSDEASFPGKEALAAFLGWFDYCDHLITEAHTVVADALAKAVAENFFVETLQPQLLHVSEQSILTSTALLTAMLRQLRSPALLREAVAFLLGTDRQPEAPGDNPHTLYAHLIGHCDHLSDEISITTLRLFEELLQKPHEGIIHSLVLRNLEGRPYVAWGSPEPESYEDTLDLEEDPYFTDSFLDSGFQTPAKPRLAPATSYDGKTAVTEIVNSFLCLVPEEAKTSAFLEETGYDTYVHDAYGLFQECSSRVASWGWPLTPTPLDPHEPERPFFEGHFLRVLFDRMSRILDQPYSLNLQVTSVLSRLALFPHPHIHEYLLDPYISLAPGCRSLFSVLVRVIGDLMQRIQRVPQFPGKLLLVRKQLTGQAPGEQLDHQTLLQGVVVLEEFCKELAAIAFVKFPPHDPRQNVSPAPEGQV

Results are given in words; binding and its absence hold for the method and conditions named. Binding seen in cells or lysates may run through a third protein. A yes stands for co-enrichment or nearness to the bait. Other partners may have been found. For some assays here: Tags and fused reporters may be left off the sequences shown.

B1: FTS/AKTIP, endogenous in 293T cells (protein, UniProt Q9H8T0 1-292)
chain: MNPFWSMSTSSVRKRSEGEEKTLTGDVKTSPPRTAPKKQLPSIPKNALPITKPTSPAPAAQSTNGTHASYGPFYLEYSLLAEFTLVVKQKLPGVYVQPSYRSALMWFGVIFIRHGLYQDGVFKFTVYIPDNYPDGDCPRLVFDIPVFHPLVDPTSGELDVKRAFAKWRRNHNHIWQVLMYARRVFYKIDTASPLNPEAAVLYEKDIQLFKSKVVDSVKVCTARLFDQPKIEDPYAISFSPWNPSVHDEAREKMLTQKKPEEQHNKSVHVAGLSWVKPGSVQPFSKEEKTVAT
Take B1: the binding entry in experiment [1], in experiment [2], in experiment [3] and in experiment [4] was “binds” in each case.

B2: Rab5B, endogenous in 293T cells (protein, UniProt P61020 1-215)
chain: MTSRSTARPNGQPQASKICQFKLVLLGESAVGKSSLVLRFVKGQFHEYQESTIGAAFLTQSVCLDDTTVKFEIWDTAGQERYHSLAPMYYRGAQAAIVVYDITNQETFARAKTWVKELQRQASPSIVIALAGNKADLANKRMVEYEEAQAYADDNSLLFMETSAKTAMNVNDLFLAIAKKLPKSEPQNLGGAAGRSRGVDLHEQSQQNKSQCCSN
As to B2, the binding result in experiment [4] was “binds”.

For the origin of these results see PMC8730729.
